In PubChem BioAssay AID720504 (National Center for Advancing Translational Sciences (NCATS), 2013):
Where “and” joins values, the source holds several entries; their conditions need not be identical. Equal entries are not always repeated. The campaign covered roughly 360,000 compounds. About 10,000 (2.8%) were called active. Inconclusive results, whose numbers are uncertain, are shown with a selection of clear calls. Calls follow the shape of the dose curve; as a rule, active = well fitted inhibition curve with a large enough effect; inconclusive = small, poorly fitted or top-dose-only effect; inactive = flat fitted curve, though single readings scatter. Potencies beside an inconclusive call are fits to weak or partial responses and may not hold up.
% is scaled to controls: 0 for no effect and ±100 for the full control effect; potency is read from the fitted curve at half-maximal effect.
Also: nearly all actives have a fitted effect of over 65% in size.
For max response, negative = inhibition in this document: series mostly up to about 57 µM.

Amino acid sequences for entries named in this document (tags omitted).
UniProt P53350, whole entry, looked up: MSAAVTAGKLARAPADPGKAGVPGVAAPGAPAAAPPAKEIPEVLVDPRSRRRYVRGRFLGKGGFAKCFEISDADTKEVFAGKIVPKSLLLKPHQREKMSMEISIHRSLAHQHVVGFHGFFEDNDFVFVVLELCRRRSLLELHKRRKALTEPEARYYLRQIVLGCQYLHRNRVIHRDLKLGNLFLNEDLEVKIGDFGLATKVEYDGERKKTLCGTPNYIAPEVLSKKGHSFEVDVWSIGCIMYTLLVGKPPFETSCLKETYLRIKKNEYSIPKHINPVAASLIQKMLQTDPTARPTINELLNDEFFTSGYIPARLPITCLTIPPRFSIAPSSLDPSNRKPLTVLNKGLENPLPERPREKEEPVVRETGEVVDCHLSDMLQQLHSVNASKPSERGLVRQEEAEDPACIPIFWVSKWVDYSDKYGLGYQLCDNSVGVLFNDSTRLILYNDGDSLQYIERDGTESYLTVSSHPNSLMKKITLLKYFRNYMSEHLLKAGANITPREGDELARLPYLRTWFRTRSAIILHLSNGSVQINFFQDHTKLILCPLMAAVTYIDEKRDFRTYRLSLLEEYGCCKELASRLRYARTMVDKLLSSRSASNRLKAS

These molecules were tested against Serine/threonine-protein kinase PLK1 (Homo sapiens) (UniProt P53350) (assay: qHTS for Inhibitors of PLK1-PDB (polo-like kinase 1 - polo-box domain): Primary Screen). Settings: Plk1 PBD binding of FITC phosphopeptide, fluorescence polarization.
`Cc1cc2nc(-c3ccc(SCC(=O)Nc4ccc5c(c4)OCCO5)nc3)[nH]c2cc1C` was tested, and the Potency was inconclusive: 18.9 µM [inhibitor, partial curve]. `CC(Sc1nnc2c(n1)[nH]c1ccccc12)C(=O)N(C)C1CCCCC1` (centres undefined) was tested, and the Potency was inconclusive: 26.7 µM [inhibitor, partial curve]. For `COC(=O)c1cc(C(=O)Nc2cc(C)on2)cc([N+](=O)[O-])c1`, the max response, negative = inhibition was inactive: -3.18%. With `Cc1ccc(CNC(=O)c2ccc3c(=O)[nH]c4c(C(=O)NCC5CCCO5)sc(=S)n4c3c2)cc1` (centres undefined) the Potency was inconclusive: 33.6 µM [inhibitor, single point]. With `O=C(c1c[nH]c(C(=O)C(Cl)(Cl)Cl)c1)c1c(F)cccc1F` the Potency was active: 5.32 µM. For `O=C(CN1C(=O)C2C3C=CC(C3)C2C1=O)Nc1nc(-c2ccccn2)cs1` (centres undefined), the max response, negative = inhibition was inactive: -7.14%. For `O=C(O)C1Nc2c(O)cccc2C2C=CCC12` (centres undefined), the Potency was active: 26.7 µM. `COc1cc2[nH]c(=S)nc(NCc3cccs3)c2cc1OC` was tested, and the max response, negative = inhibition was inactive: -14.2%. For `CCn1c(SCc2nc3sc(C(=O)O)c(C)c3c(=O)[nH]2)nc2ccccc21`, the Potency was inconclusive: 23.8 µM [inhibitor, partial curve]. `Cc1c(N=C2NN=C(c3ccc(Cl)cc3)CS2)c(=O)n(-c2ccccc2)n1C` was tested, and the Potency was inconclusive: 26.7 µM [inhibitor, single point]. `O=C(Oc1cccnc1)c1ccc([N+](=O)[O-])cc1` was tested, and the Potency was inconclusive: 26.7 µM [inhibitor, partial curve]. In the case of `O=C(Nc1nnc(CSCc2ccccc2F)s1)c1cccc([N+](=O)[O-])c1`, the max response, negative = inhibition is reported as inconclusive: -28.8% [inhibitor]. In the case of `CCN1CCN(c2ccc(S(=O)(=O)N3CCOCC3)cc2NC(=O)COc2ccc(F)cc2Cl)CC1`, the max response, negative = inhibition is reported as inactive: -3.84%. In the case of `CCc1nc2ccccc2c(C(=O)OCC(=O)Nc2cccc(S(=O)(=O)N3CCOCC3)c2)c1C`, the max response, negative = inhibition is reported as inactive: -3.22% and inactive: 6.36%. `CCCc1ccc(C(C)NC(=O)c2cnccn2)cc1` (centres undefined) was tested, and the max response, negative = inhibition was inactive: -7.12%. In the case of `COc1ccccc1NC(=O)c1cc(-c2ccc(C)o2)nc2ccccc12`, the max response, negative = inhibition is reported as inactive: -13.5%. In the case of `CC(NC(=O)Cn1ncc(Cl)c(Cl)c1=O)C12CC3CC(CC(C3)C1)C2` (centres undefined), the max response, negative = inhibition is reported as inconclusive: -30.6% [inhibitor]. In the case of `O=C(/C=C/c1ccc([N+](=O)[O-])cc1)N(c1ccccn1)C1CCCCC1`, the Potency is reported as inconclusive: 21.2 µM [inhibitor, partial curve]. With `CC(C)c1nc(NCc2ccccc2)c(C#N)c2c1CCCC2` the Potency was inconclusive: 26.7 µM [inhibitor, single point]. In the case of `CCCOc1cccc(C2C(C(=O)c3cc4ccccc4o3)=C(O)C(=O)N2c2cc(C)on2)c1` (centres undefined), the Potency is reported as active: 26.7 µM. For `COc1ccc(C(CC(=O)O)c2ccc3c(c2)OCO3)cc1` (centres undefined), the max response, negative = inhibition was inactive: -3.49%. For `Cc1nc2[nH]c(=S)[nH]c2cc1Br`, the Potency was inconclusive: 26.7 µM [inhibitor, partial curve]. `COc1cc(CNC2CCCc3ccccc32)cc(OC)c1OC` (centres undefined) was tested, and the max response, negative = inhibition was inactive: 0.386%. For `O=C(N/N=C/c1ccc(C(F)(F)F)cc1)c1ccc(O)cc1`, the max response, negative = inhibition was inactive: -14.4%. `OCC1OC(Oc2c[nH]c3ccccc23)C(O)C(O)C1O` (centres undefined) was tested, and the Potency was inconclusive: 26.7 µM [inhibitor, partial curve]. In the case of `COc1ccc(C2CC(c3ccccc3C)n3nc(N)nc3N2)cc1` (centres undefined), the Potency is reported as inconclusive: 23.8 µM [inhibitor, partial curve]. For `CCOc1ccccc1NC(=O)C(=O)NCCC1=CCCCC1`, the Potency was active: 26.7 µM. For `Cc1ccc(N2C(=O)CC(Sc3ccccc3C(=O)O)C2=O)c([N+](=O)[O-])c1` (centres undefined), the Potency was inconclusive: 67 µM [inhibitor, partial curve]. With `Cc1cc(C)cc(OC(=O)CS(=O)c2ccc(C(F)(F)F)cc2[N+](=O)[O-])c1` (centres undefined) the Potency was inconclusive: 11.9 µM [inhibitor, partial curve]. With `O=C(/C=C/c1ccco1)NCc1ccccn1` the Potency was inconclusive: 29.9 µM [inhibitor, single point]. `O=C(CNc1ccccc1)c1ccc([N+](=O)[O-])cc1` was tested, and the max response, negative = inhibition was inconclusive: -33.1% [inhibitor]. `CCOC(=O)C1=C(C)N=c2s/c(=C\c3cccn3C)c(=O)n2C1c1cccc(OC)c1OC` (centres undefined) was tested, and the max response, negative = inhibition was inactive: -10.1%. With `Cc1ccc(-n2cccc2/C=C2\C(=N)N3N=C(C(C)C)SC3=NC2=O)cc1` the Potency was inconclusive: 18.9 µM [inhibitor, single point]. With `O=C1Cc2ccccc2C(=O)N1c1cccc(Cl)c1` the Potency was inconclusive: 29.9 µM [inhibitor, single point]. In the case of `O=C(NC(=S)Nc1cc([N+](=O)[O-])ccc1O)c1cccnc1`, the Potency is reported as inconclusive: 29.9 µM [inhibitor, partial curve]. With `CC(Sc1cccc[n+]1[O-])C(=O)Nc1ccc(Oc2ccccc2)cc1` (centres undefined) the Potency was inconclusive: 21.2 µM [inhibitor, single point]. With `Cc1nc(-c2ccccc2)sc1C(=O)CSc1ccccc1` the Potency was inconclusive: 16.8 µM [inhibitor, partial curve]. `COCCCNC(=S)NCCCNc1nc2cc3c(cc2cc1C#N)OCO3` was tested, and the Potency was inconclusive: 26.7 µM [inhibitor, single point]. With `CCOc1ccc([C@@H]2CC=C(C(=O)O)[C@H](c3cccc(Cl)c3)N2S(=O)(=O)c2ccc(C)cc2)cc1` the Potency was inconclusive: 21.2 µM [inhibitor, single point]. `CCCN1CCN(C(=O)CCCNC(=O)Cn2cnc3sc(C)c(C)c3c2=O)CC1` was tested, and the Potency was inconclusive: 26.7 µM [inhibitor, single point]. For `COC(=O)c1c(-c2ccc(C)cc2)csc1N`, the Potency was inconclusive: 29.9 µM [inhibitor, partial curve]. For `COC(=O)CSC1=C(C#N)C(=O)NC2(CCCCC2)S1`, the max response, negative = inhibition was inactive: -9.29%. For `O=C(c1ccccc1F)N1CCN(c2ccccc2F)CC1`, the Potency was inconclusive: 26.7 µM [inhibitor, single point]. With `CC(C)c1ccc(Nc2n[nH]c(=S)s2)cc1` the Potency was inconclusive: 33.6 µM [inhibitor, single point].
